Where two headings read alike, the source gives them in different places. Results are given in words; binding and its absence hold for the method and conditions named. In cells and extracts the contact can be indirect. Some entries that bind do so weakly or less than the wild type. For part of these data: Tags and fused reporters may be left off the sequences shown.

Amino acid sequences for entries named in this document (tags omitted). A change or cut given only in a name is not applied to a line headed by its entry. Chains listed by the source or under a name are the forms on record and can include a tag or linker.
UniProt Q39204: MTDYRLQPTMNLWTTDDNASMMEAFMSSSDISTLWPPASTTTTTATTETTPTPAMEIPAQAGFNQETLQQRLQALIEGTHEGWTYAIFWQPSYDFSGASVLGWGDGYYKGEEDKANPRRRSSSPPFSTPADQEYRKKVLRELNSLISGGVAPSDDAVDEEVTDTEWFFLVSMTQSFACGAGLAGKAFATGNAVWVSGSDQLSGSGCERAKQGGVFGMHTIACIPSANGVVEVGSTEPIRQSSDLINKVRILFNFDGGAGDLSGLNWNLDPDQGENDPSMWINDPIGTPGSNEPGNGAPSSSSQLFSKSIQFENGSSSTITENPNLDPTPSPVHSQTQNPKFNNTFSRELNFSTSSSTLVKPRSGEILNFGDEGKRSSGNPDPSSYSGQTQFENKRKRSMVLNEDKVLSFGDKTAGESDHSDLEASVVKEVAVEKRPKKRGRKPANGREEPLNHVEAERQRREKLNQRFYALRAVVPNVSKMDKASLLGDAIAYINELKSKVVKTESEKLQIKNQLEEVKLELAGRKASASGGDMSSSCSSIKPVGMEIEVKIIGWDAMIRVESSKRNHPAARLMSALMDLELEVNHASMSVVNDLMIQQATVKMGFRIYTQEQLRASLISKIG
MYC2^2K/R-GFP (double lysine mutant of MYC2 fused to GFP) (Q39204, form named): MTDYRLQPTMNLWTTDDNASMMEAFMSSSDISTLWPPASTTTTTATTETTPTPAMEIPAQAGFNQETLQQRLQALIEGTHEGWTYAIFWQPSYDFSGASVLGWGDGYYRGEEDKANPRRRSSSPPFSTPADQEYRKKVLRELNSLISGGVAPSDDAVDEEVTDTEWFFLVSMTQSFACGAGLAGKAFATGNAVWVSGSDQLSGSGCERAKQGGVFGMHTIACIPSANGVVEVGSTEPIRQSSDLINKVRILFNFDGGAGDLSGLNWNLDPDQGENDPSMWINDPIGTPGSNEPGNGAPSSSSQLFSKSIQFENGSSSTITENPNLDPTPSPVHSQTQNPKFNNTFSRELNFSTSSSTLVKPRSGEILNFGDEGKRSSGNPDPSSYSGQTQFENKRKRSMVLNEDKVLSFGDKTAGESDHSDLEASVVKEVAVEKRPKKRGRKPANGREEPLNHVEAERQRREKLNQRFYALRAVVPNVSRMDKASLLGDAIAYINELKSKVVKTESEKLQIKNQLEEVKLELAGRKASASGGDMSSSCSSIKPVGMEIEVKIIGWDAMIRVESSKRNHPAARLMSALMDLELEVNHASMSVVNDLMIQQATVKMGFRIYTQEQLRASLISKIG
UniProt Q9FIP9: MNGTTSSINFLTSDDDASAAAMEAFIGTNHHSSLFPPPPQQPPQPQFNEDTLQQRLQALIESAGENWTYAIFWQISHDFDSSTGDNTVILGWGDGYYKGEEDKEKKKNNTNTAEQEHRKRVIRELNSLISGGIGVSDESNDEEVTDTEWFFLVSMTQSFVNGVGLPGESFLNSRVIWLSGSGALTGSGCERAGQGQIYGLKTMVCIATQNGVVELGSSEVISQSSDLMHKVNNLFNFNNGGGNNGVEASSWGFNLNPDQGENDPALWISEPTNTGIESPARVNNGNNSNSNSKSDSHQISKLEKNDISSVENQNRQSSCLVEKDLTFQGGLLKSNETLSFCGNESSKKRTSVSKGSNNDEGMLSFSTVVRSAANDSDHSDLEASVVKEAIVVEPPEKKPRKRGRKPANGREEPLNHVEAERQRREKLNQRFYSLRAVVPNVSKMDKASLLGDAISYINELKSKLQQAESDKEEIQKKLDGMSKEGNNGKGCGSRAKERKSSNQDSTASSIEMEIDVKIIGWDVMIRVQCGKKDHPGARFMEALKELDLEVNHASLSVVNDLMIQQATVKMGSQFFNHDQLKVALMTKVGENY

What all share (assay): co-IP; total protein extract of N. benthamiana leaves transiently co-expressing the GFP- and HA-tagged proteins; anti-GFP beads (Chromotek), 30 min on ice; buffer 100 mM Tris-HCl pH 8.0, 0.1% SDS, 0.5% sodium deoxycholate, 1% glycerol, 50 mM sodium metabisulphite, 100 mM DTT; immunoblot with anti-HA and anti-GFP
The target of assay [1] is MYC2^2K/R-GFP (double lysine mutant of MYC2 fused to GFP) (Arabidopsis thaliana) (UniProt Q39204).
The target in assay [2] is GFP-tagged MYC2 (wild type) (Arabidopsis thaliana) (UniProt Q39204).
For assay [3], the target named is MYC2^2K/R-GFP (double lysine mutant of MYC2 fused to GFP) (Arabidopsis thaliana) (UniProt Q39204). The source holds these as a separate data set.

In the case of MYC3-HA (from UniProt Q9FIP9 1-592), the binding entry in assay [1] and in assay [2] was “binds” in each case.

B1: AtPUB10-HA (Plant U-box 10, E3 ubiquitin ligase) (enzyme, UniProt Q9C9A6 1-628)
chain: MAGGAITPDSLIGLIAEINEIPGNFGLFKKDCSDLARRVGLLTHLIEEIRDSSPPSESDASSSLNSHECDWWSDLVVGLQAAKRLLSSATSFQARESSDGAAKRISFQFQCVTWKLEKALGDLTYDRYDISDEVREQVELARLQLRRAMQRYGSLNSKKFSSGLSEPMEKDASSNRKVIEKLESIPETVHSLSDEKKFESPPPWKSSSVSLAFFLSKDGDDERLEKAVTENSDDSQKSDNLTIPEDFLCPISLELMKDPAIVSTGQTYERSFIQRWIDCGNLSCPKTQQKLENFTLTPNYVLRSLISQWCTKHNIEQPGGYMNGRTKNSDGSFRDLSGDMSAIRALVCKLSSQSIEDRRTAVSEIRSLSKRSTDNRILIAEAGAIPVLVKLLTSDGDTETQENAVTCILNLSIYEHNKELIMLAGAVTSIVLVLRAGSMEARENAAATLFSLSLADENKIIIGASGAIMALVDLLQYGSVRGKKDAATALFNLCIYQGNKGRAVRAGIVKPLVKMLTDSSSERMADEALTILSVLASNQVAKTAILRANAIPPLIDCLQKDQPRNRENAAAILLCLCKRDTEKLISIGRLGAVVPLMELSRDGTERAKRKANSLLELLRKSSRKLGSL
As for B1, in assay [3], the binding entry is “binds”.

Values taken from publication PMC9338799.
